Test results taken from paper doi:10.1101/2022.07.23.501257.
Like-named read-outs stand apart in the source and are kept apart here. These are yes or no findings as the source states them, for the method shown. Binding can be weak; no strength is given.

The chains behind the UniProt entries cited, without tags or fusion partners. Where a name states a change or a piece, a line headed by the entry shows the natural chain unless it says otherwise.
UniProt Q62765: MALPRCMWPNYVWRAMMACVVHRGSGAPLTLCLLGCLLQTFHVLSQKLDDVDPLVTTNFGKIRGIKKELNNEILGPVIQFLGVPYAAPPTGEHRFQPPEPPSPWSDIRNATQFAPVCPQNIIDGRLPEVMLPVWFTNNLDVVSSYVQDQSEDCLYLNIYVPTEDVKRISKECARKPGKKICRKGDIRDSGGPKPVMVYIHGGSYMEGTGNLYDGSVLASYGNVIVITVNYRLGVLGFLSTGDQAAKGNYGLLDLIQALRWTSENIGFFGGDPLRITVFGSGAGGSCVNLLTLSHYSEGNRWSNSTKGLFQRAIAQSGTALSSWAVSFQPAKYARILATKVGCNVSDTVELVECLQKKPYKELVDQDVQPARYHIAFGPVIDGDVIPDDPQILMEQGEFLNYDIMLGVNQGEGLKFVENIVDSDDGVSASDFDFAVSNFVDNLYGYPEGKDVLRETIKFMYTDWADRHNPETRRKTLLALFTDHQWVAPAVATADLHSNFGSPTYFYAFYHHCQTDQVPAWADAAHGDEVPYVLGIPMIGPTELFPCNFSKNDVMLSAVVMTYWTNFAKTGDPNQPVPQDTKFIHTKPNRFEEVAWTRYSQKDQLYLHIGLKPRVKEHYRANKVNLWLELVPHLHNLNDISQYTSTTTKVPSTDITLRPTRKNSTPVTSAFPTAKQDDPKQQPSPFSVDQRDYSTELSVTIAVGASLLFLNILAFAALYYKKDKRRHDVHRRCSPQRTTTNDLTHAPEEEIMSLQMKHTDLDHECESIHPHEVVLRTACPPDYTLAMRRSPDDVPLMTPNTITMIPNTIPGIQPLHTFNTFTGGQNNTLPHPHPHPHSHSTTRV
UniProt Q62888: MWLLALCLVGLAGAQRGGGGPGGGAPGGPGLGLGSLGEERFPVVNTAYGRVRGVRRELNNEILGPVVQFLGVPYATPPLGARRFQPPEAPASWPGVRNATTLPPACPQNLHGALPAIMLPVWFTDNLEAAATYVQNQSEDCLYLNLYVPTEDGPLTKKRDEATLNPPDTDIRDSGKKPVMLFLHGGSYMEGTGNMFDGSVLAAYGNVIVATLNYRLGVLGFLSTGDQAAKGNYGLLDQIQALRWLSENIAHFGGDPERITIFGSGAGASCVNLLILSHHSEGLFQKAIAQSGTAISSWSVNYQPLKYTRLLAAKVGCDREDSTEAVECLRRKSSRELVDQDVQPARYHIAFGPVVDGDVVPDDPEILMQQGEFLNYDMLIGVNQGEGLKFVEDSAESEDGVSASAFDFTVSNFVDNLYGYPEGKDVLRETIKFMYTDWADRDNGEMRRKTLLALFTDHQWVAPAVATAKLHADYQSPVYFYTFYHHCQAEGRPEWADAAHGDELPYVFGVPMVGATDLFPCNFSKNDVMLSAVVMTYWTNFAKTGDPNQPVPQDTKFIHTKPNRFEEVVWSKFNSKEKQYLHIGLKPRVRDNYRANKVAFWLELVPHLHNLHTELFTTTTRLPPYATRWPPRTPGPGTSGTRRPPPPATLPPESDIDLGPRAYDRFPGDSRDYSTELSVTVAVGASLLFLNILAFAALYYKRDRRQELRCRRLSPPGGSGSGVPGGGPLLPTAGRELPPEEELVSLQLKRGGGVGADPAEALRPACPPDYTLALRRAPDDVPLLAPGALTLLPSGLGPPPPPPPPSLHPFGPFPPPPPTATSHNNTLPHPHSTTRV
UniProt Q62889: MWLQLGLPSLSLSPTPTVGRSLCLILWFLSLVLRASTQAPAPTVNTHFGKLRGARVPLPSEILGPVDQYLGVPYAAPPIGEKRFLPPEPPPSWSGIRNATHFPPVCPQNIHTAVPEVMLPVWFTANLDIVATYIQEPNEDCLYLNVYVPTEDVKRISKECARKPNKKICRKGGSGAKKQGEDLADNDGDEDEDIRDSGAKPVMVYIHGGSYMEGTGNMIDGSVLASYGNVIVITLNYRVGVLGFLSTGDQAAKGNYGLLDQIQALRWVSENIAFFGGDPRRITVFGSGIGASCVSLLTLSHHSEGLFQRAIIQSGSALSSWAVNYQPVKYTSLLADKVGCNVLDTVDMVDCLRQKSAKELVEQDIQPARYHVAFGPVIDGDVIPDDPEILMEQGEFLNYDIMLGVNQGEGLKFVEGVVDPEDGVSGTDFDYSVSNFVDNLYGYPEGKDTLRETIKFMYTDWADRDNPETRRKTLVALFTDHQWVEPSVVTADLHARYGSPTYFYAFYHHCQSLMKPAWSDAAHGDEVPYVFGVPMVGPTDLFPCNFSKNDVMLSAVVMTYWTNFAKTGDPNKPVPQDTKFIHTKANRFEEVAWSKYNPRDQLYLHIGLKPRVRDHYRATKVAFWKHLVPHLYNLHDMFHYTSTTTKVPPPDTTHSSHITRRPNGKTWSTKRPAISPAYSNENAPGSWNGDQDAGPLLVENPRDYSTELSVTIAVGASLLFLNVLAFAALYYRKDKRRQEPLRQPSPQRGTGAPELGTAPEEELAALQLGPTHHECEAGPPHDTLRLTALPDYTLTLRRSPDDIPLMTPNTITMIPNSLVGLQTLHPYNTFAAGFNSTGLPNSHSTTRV
UniProt B0F2B4: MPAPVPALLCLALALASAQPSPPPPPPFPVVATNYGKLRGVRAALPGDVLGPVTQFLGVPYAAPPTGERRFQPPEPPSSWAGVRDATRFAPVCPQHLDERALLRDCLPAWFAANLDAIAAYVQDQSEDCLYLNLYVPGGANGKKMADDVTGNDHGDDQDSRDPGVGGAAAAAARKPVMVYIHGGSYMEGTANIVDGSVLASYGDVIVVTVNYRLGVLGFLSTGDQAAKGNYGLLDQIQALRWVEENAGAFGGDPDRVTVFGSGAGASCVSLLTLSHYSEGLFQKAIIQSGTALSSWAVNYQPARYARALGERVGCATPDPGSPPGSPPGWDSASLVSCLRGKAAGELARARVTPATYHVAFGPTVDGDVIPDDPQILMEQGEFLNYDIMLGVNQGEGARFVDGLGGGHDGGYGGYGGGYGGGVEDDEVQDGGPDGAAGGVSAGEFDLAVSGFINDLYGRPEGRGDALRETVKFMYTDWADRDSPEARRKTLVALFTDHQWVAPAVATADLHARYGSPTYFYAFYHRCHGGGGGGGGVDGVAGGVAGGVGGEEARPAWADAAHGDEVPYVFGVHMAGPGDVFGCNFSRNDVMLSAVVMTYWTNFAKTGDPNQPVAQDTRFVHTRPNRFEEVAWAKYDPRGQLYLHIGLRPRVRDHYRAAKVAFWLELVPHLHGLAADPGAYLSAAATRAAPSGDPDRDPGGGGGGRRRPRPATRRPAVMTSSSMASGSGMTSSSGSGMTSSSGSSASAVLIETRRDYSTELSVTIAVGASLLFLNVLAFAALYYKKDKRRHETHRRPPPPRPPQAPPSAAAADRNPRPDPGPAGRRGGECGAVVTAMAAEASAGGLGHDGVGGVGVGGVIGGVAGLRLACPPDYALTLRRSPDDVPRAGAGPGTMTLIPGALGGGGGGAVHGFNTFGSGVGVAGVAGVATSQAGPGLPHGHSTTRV
UniProt O88382: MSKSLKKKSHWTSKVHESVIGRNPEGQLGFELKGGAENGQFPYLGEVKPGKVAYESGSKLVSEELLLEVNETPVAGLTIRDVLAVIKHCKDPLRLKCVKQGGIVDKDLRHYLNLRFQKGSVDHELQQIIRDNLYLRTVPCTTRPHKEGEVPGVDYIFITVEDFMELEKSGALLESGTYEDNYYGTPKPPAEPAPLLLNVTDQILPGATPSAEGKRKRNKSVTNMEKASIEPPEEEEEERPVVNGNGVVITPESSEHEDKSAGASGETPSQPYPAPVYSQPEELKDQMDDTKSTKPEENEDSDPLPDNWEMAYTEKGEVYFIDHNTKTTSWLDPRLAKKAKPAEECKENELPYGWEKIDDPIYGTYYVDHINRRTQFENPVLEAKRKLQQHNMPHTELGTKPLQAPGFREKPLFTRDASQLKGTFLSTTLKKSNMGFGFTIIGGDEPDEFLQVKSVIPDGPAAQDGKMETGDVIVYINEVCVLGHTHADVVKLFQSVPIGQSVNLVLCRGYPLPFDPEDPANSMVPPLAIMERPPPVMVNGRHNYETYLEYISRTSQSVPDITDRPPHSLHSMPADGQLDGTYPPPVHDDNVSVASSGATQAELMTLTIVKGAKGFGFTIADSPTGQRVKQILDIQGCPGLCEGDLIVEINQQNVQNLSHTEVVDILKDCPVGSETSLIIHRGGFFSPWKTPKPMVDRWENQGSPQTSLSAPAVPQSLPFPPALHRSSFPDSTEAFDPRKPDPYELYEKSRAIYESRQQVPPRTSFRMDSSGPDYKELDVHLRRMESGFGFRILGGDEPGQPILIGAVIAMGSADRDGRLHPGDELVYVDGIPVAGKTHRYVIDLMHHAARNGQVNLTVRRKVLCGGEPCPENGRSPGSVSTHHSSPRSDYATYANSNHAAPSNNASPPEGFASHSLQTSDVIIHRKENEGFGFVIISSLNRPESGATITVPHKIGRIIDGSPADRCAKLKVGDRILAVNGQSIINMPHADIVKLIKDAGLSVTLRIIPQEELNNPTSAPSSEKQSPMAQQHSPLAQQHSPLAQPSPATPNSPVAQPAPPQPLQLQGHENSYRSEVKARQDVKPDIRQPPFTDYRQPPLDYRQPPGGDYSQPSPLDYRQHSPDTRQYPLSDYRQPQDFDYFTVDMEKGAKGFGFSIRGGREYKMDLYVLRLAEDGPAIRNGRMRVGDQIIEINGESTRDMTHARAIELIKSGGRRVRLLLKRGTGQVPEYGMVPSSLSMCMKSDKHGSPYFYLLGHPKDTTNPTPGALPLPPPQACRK

Experiments:
Test in all cases: two-hybrid
[1] = target: Neuroligin-1 intracellular domain, wild type (rat) (UniProt Q62765)
[2] = target: Neuroligin-2 intracellular domain, wild type (rat) (UniProt Q62888)
[3] = target: Neuroligin-3 intracellular domain, wild type S799 (rat) (UniProt Q62889)
[4] = target: Neuroligin-4 intracellular domain, wild type (mouse) (UniProt B0F2B4)
[5] = target: Neuroligin-1 intracellular domain, phospho-null mutant of the Gephyrin-binding site serine (rat)
[6] = target: Neuroligin-1 intracellular domain, wild type (rat) (UniProt Q62765); remark: listed apart in the source
[7] = target: Neuroligin-2 intracellular domain, wild type (rat) (UniProt Q62888); remark: listed apart in the source
[8] = target: Neuroligin-3 intracellular domain, wild type S799 (rat) (UniProt Q62889); remark: listed apart in the source
[9] = target: Neuroligin-4 intracellular domain, phospho-null mutant of the Gephyrin-binding site serine (mouse)
[10] = target: Neuroligin-4 intracellular domain, wild type (mouse) (UniProt B0F2B4); remark: listed apart in the source

Measured: binding

S-SCAM fragment encompassing PDZ domains 1-3 (from UniProt O88382) (domain or fragment)
binds: [1] | [2] | [3] | [4]

B1: Gephyrin, full length (protein, UniProt Q03555 1-768)
chain: MATEGMILTNHDHQIRVGVLTVSDSCFRNLAEDRSGINLKDLVQDPSLLGGTISAYKIVPDEIEEIKETLIDWCDEKELNLILTTGGTGFAPRDVTPEKFPTFPFCGLQKGATKEVIEREAPGMALAMLMGSLNVTPLGMLSRPVCGIRGKTLIINLPGSKKGSQECFQFILPALPHAIDLLRDAIVKVKEVHDELEDLPSPPPPLSPPPTTSPHKQTEDKGVQCEEEEEEKKDSGVASTEDSSSSHITAAALAAKIPDSIISRGVQVLPRDTASLSTTPSESPRAQATSRLSTASCPTPKQIRRPDESKGVASRVGSLKVQSRCSSKENILRASHSAVDITKVARRHRMSPFPLTSMDKAFITVLEMTPVLGTEIINYRDGMGRVLAQDVYAKDNLPPFPASVKDGYAVRAADGPGDRFIIGESQAGEQPTQTVMPGQVMRVTTGAPIPCGADAVVQVEDTELIRESDDGTEELEVRILVQARPGQDIRPIGHDIKRGECVLAKGTHMGPSEIGLLATVGVTEVEVNKFPVVAVMSTGNELLNPEDDLLPGKIRDSNRSTLLATIQEHGYPTINLGIVGDNPDDLLNALNEGISRADVIITSGGVSMGEKDYLKQVLDIDLHAQIHFGRVFMKPGLPTTFATLDIDGVRKIIFALPGNPVSAVVTCNLFVVPALRKMQGILDPRPTIIKARLSCDVKLDPRPEYHRCILTWHHQEPLPWAQSTGNQMSSRLMSMRSANGLLMLPPKTEQYVELHKGEVVDVMVIGRL
binds: [5] | [6] | [7] | [8] | [9] | [10]
